Data published in EP4721767A1 (priority 2023, dated 2024).
Substitutions are numbered along the chain they refer to. No constants are given. Whether binding was seen depends on the method and setting. Some results given as binding are weak or reduced against the parent protein; the word gives no strength.

T1: human B7-H3 naturally expressed on the surface of SKOV3 cells (human) (UniProt Q5ZPR3)
T1 sequence (looked up): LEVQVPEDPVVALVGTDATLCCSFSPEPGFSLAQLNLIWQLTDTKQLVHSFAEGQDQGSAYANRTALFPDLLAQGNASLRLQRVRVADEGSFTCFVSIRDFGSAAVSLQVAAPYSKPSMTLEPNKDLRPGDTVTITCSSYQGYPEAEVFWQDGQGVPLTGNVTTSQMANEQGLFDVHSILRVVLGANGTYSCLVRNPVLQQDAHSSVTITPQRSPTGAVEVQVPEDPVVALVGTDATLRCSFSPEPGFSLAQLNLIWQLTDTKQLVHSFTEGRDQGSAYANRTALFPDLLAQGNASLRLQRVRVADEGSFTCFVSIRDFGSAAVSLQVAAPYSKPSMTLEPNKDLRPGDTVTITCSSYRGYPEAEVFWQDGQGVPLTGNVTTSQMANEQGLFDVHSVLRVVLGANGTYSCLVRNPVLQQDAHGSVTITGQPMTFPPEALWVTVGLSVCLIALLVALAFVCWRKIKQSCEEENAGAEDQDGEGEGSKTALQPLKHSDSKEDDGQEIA

B1: hz10B4m1 (antibody, V domains shown)
VH: EVQLVQSGAEVKKPGASVKVSCKASGYTFTEYIMHWVRQAPGQGLEWMGGINPASGGTTYNQKFKGRVTMTRDTSISTAYMELSRLRSEDTAVYYCARKGKDYFDWYFDVWGQGTTVTVSS
VL: DIQLTQSPSSLSASVGDRVTMTCSASSSVSYMHWYQQKPGKAPKLLIYDTSKLASGVPSRFSGSGSGTDFTLTISSLQPEDFATYYCQQWSSAPLTFGGGTKVEIK
notes: LCDR3 variant of hz10B4 (SSN→SSA); also called hz10B4-VH×hz10B4-Lm1-VL
B2: hz10B4m3 (antibody, V domains shown)
VH: B1 VH
VL: B1 VL with A93Q
notes: LCDR3 variant of hz10B4 (SSN→SSQ); also called hz10B4-VH×hz10B4-Lm3-VL
B3: hz10B4m2 (antibody, V domains shown)
VH: B1 VH
VL: B1 VL with S92A, A93S
notes: LCDR3 variant of hz10B4 (SSN→SAS); also called hz10B4-VH×hz10B4-Lm2-VL

Each binder was assayed against T1, human B7-H3 naturally expressed on the surface of SKOV3 cells (human) (assay: flow cytometry on SKOV3 cells).

binding	Binder
binds	B1
binds	B2
binds	B3
